Record: PubChem BioAssay AID504764 (Drosophila RNAi Screening Center, 2011)
In all, the deposit lists about 22,000 reagents; this is an unselected part of those with a known target gene and a result. Of all reagents, 403 (1.9%) are marked active. 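Unnormalised raw counts per well; ratio z-scores behind the hit calls and whether each hit raises or lowers signal are not deposited.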 Unmarked entries are inactive. Reagents against one gene are numbered here. Not stated in the record: the amount of reagent.

- Test: 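Genes whose knock-down alters Notch-dependent transcription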 (primary screen)
- System: Drosophila Kc167 cells
- Reagents: long dsRNA against Drosophila genes
- Time to read-out: about 5 days (4 days dsRNA, then 24 h after transfection)
- Challenge: transfection of constitutively active membrane-tethered Notch lacking the extracellular domain, read 24 h later
- Measured: 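Firefly luciferase from an E(spl)m3 reporter with active Notch, plus control-promoter and uninduced reporter wells for normalisation; unnormalised counts, duplicate wells a and b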
- Scale: induced reporter light, run 1, well a and induced reporter light, run 1, well b: higher = more light from the Notch target reporter with active Notch; control promoter light, run 1, well a and control promoter light, run 1, well b: higher = more light from the viral control promoter (cell number, transfection, viability); uninduced reporter light, run 1, well a: higher = more light from the Notch target reporter without active Notch
- Call rule: 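Hit if the duplicate-averaged log2 ratio of induced to control-promoter light gives a plate-wise z beyond ±2, or induced to uninduced beyond ±1.8; weak-control or discordant-duplicate wells dropped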
- Calls: active = modifier hit (raised or lowered Notch signal); inactive = not a hit

{"target": "CG17734", "dsRNA no.": 1, "induced reporter light, run 1, well a": 72850, "induced reporter light, run 1, well b": 77755, "control promoter light, run 1, well a": 66965, "control promoter light, run 1, well b": 48390, "uninduced reporter light, run 1, well a": 3985}
{"target": "ND-PDSW", "dsRNA no.": 1, "induced reporter light, run 1, well a": 1.25e5, "induced reporter light, run 1, well b": 1.07e5, "control promoter light, run 1, well a": 1.14e5, "control promoter light, run 1, well b": 1.29e5, "uninduced reporter light, run 1, well a": 11010}
{"target": "CG44098", "dsRNA no.": 1, "induced reporter light, run 1, well a": 1.63e5, "induced reporter light, run 1, well b": 1.06e5, "control promoter light, run 1, well a": 1.15e5, "control promoter light, run 1, well b": 85415, "uninduced reporter light, run 1, well a": 11815}
{"target": "CG44098", "dsRNA no.": 2, "induced reporter light, run 1, well a": 37015, "induced reporter light, run 1, well b": 47180, "control promoter light, run 1, well a": 46720, "control promoter light, run 1, well b": 41950, "uninduced reporter light, run 1, well a": 3265}
{"target": "Pgant2", "dsRNA no.": 1, "induced reporter light, run 1, well a": 64730, "induced reporter light, run 1, well b": 48485, "control promoter light, run 1, well a": 69845, "control promoter light, run 1, well b": 56105, "uninduced reporter light, run 1, well a": 3895}
{"target": "sim", "dsRNA no.": 1, "induced reporter light, run 1, well a": 2.86e5, "induced reporter light, run 1, well b": 2.84e5, "control promoter light, run 1, well a": 2.36e5, "control promoter light, run 1, well b": 2.43e5, "uninduced reporter light, run 1, well a": 22795}
{"target": "NaPi-III", "dsRNA no.": 1, "induced reporter light, run 1, well a": 1.64e5, "induced reporter light, run 1, well b": 1.61e5, "control promoter light, run 1, well a": 97815, "control promoter light, run 1, well b": 45045, "uninduced reporter light, run 1, well a": 12015}
{"target": "NaPi-III", "dsRNA no.": 2, "induced reporter light, run 1, well a": 15642, "induced reporter light, run 1, well b": 15200, "control promoter light, run 1, well a": 14910, "control promoter light, run 1, well b": 19875, "uninduced reporter light, run 1, well a": 3420}
{"target": "CG15393 (retired record)", "dsRNA no.": 1, "induced reporter light, run 1, well a": 1.18e5, "induced reporter light, run 1, well b": 1.32e5, "control promoter light, run 1, well a": 97705, "control promoter light, run 1, well b": 55995, "uninduced reporter light, run 1, well a": 7880}
{"target": "gNacalpha", "dsRNA no.": 1, "induced reporter light, run 1, well a": 1.16e5, "induced reporter light, run 1, well b": 1.14e5, "control promoter light, run 1, well a": 1.19e5, "control promoter light, run 1, well b": 1.01e5, "uninduced reporter light, run 1, well a": 11425}
{"target": "CG10195", "dsRNA no.": 1, "induced reporter light, run 1, well a": 40955, "induced reporter light, run 1, well b": 39710, "control promoter light, run 1, well a": 43025, "control promoter light, run 1, well b": 68735, "uninduced reporter light, run 1, well a": 2055}
{"target": "CG4375", "dsRNA no.": 1, "induced reporter light, run 1, well a": 1.24e5, "induced reporter light, run 1, well b": 99785, "control promoter light, run 1, well a": 97155, "control promoter light, run 1, well b": 76360, "uninduced reporter light, run 1, well a": 8050}
{"target": "CG15255", "dsRNA no.": 1, "induced reporter light, run 1, well a": 1.07e5, "induced reporter light, run 1, well b": 1.19e5, "control promoter light, run 1, well a": 1.32e5, "control promoter light, run 1, well b": 1.38e5, "uninduced reporter light, run 1, well a": 7715}
{"target": "cact", "dsRNA no.": 1, "induced reporter light, run 1, well a": 1.82e5, "induced reporter light, run 1, well b": 1.47e5, "control promoter light, run 1, well a": 1.35e5, "control promoter light, run 1, well b": 1.48e5, "uninduced reporter light, run 1, well a": 14945}

An excerpt from above, limited to “control promoter light, run 1, well a”.
CG17734: 66965
ND-PDSW: 1.14e5
CG44098 #1: 1.15e5

Continued:
{"target": "CG14968", "dsRNA no.": 1, "induced reporter light, run 1, well a": 1.56e5, "induced reporter light, run 1, well b": 1.33e5, "control promoter light, run 1, well a": 2.11e5, "control promoter light, run 1, well b": 3.03e5, "uninduced reporter light, run 1, well a": 5870}
{"target": "Gr89a", "dsRNA no.": 1, "induced reporter light, run 1, well a": 1.88e5, "induced reporter light, run 1, well b": 1.85e5, "control promoter light, run 1, well a": 1.91e5, "control promoter light, run 1, well b": 1.94e5, "uninduced reporter light, run 1, well a": 14765}
{"target": "Cndp2", "dsRNA no.": 1, "induced reporter light, run 1, well a": 1.82e5, "induced reporter light, run 1, well b": 1.44e5, "control promoter light, run 1, well a": 1.43e5, "control promoter light, run 1, well b": 1.46e5, "uninduced reporter light, run 1, well a": 10465}
{"target": "CG32259", "dsRNA no.": 1, "induced reporter light, run 1, well a": 1.74e5, "induced reporter light, run 1, well b": 1.83e5, "control promoter light, run 1, well a": 1.39e5, "control promoter light, run 1, well b": 1.50e5, "uninduced reporter light, run 1, well a": 14510}
{"target": "CG15022", "dsRNA no.": 1, "induced reporter light, run 1, well a": 2.57e5, "induced reporter light, run 1, well b": 2.75e5, "control promoter light, run 1, well a": 2.84e5, "control promoter light, run 1, well b": 2.21e5, "uninduced reporter light, run 1, well a": 14042}
{"target": "Fsn", "dsRNA no.": 1, "induced reporter light, run 1, well a": 1.35e5, "induced reporter light, run 1, well b": 1.62e5, "control promoter light, run 1, well a": 1.52e5, "control promoter light, run 1, well b": 1.50e5, "uninduced reporter light, run 1, well a": 13970}
{"target": "CG6937", "dsRNA no.": 1, "induced reporter light, run 1, well a": 1.96e5, "induced reporter light, run 1, well b": 1.37e5, "control promoter light, run 1, well a": 1.89e5, "control promoter light, run 1, well b": 1.75e5, "uninduced reporter light, run 1, well a": 10325}
{"target": "veg (retired record)", "dsRNA no.": 1, "induced reporter light, run 1, well a": 79100, "induced reporter light, run 1, well b": 77665, "control promoter light, run 1, well a": 98185, "control promoter light, run 1, well b": 1.07e5, "uninduced reporter light, run 1, well a": 8250}
{"target": "CG2839", "dsRNA no.": 1, "induced reporter light, run 1, well a": 99250, "induced reporter light, run 1, well b": 1.08e5, "control promoter light, run 1, well a": 92685, "control promoter light, run 1, well b": 45135, "uninduced reporter light, run 1, well a": 9305}
{"target": "tap", "dsRNA no.": 1, "induced reporter light, run 1, well a": 1.63e5, "induced reporter light, run 1, well b": 1.35e5, "control promoter light, run 1, well a": 2.01e5, "control promoter light, run 1, well b": 1.79e5, "uninduced reporter light, run 1, well a": 6715}
